Test results published in publication PMC5653649, “Evolution of AF6-RAS association and its implications in mixed-lineage leukemia” (Nature Communications, 2017).

Chains of the proteins cited; added tags and fusions are not shown. Residues count along the entry.
UniProt Q03164, residues 1-1395: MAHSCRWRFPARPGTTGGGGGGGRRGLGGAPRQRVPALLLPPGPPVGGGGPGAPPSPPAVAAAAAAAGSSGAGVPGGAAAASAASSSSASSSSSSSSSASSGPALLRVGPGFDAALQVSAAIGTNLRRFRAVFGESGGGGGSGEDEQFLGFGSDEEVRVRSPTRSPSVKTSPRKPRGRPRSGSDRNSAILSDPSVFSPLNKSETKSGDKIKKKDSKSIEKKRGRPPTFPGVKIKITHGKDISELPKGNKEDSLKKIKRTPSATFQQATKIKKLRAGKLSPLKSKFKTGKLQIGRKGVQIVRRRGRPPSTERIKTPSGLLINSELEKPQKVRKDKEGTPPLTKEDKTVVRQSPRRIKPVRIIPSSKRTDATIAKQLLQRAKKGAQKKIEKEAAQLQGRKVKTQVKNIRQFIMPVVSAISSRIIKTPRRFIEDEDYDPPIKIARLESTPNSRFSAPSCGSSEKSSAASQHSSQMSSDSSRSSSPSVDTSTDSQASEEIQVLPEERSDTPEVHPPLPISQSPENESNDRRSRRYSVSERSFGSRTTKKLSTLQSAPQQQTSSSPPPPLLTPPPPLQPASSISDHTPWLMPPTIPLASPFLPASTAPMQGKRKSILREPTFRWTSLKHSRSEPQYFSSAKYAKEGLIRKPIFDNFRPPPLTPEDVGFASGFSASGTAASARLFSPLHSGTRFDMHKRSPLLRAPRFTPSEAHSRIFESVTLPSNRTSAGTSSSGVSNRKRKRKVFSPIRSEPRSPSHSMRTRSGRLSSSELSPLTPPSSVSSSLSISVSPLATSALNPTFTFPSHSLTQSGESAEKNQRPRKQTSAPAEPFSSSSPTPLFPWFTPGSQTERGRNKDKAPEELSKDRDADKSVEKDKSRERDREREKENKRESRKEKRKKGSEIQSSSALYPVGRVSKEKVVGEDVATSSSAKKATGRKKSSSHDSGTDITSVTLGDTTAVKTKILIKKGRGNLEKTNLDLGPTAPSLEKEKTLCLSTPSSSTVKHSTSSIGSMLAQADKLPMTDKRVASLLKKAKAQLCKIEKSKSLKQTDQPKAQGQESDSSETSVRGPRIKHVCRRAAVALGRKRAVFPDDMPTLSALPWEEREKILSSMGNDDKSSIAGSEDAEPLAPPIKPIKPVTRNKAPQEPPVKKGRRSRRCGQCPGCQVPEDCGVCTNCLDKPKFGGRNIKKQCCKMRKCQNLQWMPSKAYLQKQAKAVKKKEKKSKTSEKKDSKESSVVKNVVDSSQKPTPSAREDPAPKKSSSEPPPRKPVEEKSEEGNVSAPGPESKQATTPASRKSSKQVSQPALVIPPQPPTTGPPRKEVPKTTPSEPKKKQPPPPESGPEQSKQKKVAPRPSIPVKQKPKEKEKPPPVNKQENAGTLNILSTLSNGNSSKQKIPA
UniProt O00255: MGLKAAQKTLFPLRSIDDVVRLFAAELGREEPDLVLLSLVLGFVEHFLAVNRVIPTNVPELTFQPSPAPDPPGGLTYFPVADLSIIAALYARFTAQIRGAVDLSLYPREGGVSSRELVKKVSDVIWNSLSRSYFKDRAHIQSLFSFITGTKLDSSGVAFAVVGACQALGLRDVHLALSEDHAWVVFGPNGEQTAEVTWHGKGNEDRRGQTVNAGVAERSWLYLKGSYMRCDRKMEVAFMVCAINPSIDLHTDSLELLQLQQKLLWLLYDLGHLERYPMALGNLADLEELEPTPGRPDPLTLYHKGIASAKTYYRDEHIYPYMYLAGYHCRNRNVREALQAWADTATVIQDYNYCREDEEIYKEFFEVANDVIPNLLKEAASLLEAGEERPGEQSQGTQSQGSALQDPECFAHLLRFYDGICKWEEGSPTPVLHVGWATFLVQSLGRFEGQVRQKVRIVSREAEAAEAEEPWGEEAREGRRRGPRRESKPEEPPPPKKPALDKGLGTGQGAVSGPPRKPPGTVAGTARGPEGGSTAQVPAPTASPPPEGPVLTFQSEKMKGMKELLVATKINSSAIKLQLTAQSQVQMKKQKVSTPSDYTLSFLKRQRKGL

Columns and labels:
[1] = target: BirA*/FLAG-tagged MLL (1–1395) fused to AF6 αN-RA1 domain (6–136) (UniProt Q03164); assay: proximity labelling; BioID: BirA*/FLAG-tagged MLL baits in stable HeLa Flp-In T-REx cells, 24 h with tetracycline and 50 µM biotin; streptavidin purification, mass spectrometry, SAINT
[2] = target: BirA*/FLAG-tagged MLLN (MLL residues 1–1395) (UniProt Q03164); assay: as above
[3] = target: BirA*/FLAG-tagged MLL (1–1395) fused to AF6 RA1 domain (37–136) (UniProt Q03164); assay: as above
[4] = target: BirA*/FLAG-tagged MLL (1–1395) fused to AF6 αN-RA1 domain (6–136) (UniProt Q03164); assay: proximity labelling; BirA*-tagged MLL fusion co-expressed with GFP-tagged partner; anti-GFP immunoprecipitation (or IP of endogenous MEN1) probed with streptavidin-HRP
[5] = target: BirA*/FLAG-tagged MLL (1–1395) fused to AF6 RA1 domain (37–136) (UniProt Q03164); assay: as above
[6] = target: BirA*/FLAG-tagged MLL (1–1395) fused to AF6 RA1 domain (37–136) (UniProt Q03164); assay: as above; remark: listed apart in the source

binding [1]: binds
binding [2]: binds
binding [3]: binds
binding [4]: binds
binding [5]: binds
Molecule: MENIN (endogenous) (from UniProt O00255 1-610)

binding [6]: binds
B1: GFP-tagged AF10/MLLT10, full length (protein, UniProt P55197 1-1068)
chain: MVSSDRPVSLEDEVSHSMKEMIGGCCVCSDERGWAENPLVYCDGHGCSVAVHQACYGIVQVPTGPWFCRKCESQERAARVRCELCPHKDGALKRTDNGGWAHVVCALYIPEVQFANVSTMEPIVLQSVPHDRYNKTCYICDEQGRESKAATGACMTCNKHGCRQAFHVTCAQFAGLLCEEEGNGADNVQYCGYCKYHFSKLKKSKRGSNRSYDQSLSDSSSHSQDKHHEKEKKKYKEKDKHKQKHKKQPEPSPALVPSLTVTTEKTYTSTSNNSISGSLKRLEDTTARFTNANFQEVSAHTSSGKDVSETRGSEGKGKKSSAHSSGQRGRKPGGGRNPGTTVSAASPFPQGSFSGTPGSVKSSSGSSVQSPQDFLSFTDSDLRNDSYSHSQQSSATKDVHKGESGSQEGGVNSFSTLIGLPSTSAVTSQPKSFENSPGDLGNSSLPTAGYKRAQTSGIEEETVKEKKRKGNKQSKHGPGRPKGNKNQENVSHLSVSSASPTSSVASAAGSITSSSLQKSPTLLRNGSLQSLSVGSSPVGSEISMQYRHDGACPTTTFSELLNAIHNGIYNSNDVAVSFPNVVSGSGSSTPVSSSHLPQQSSGHLQQVGALSPSAVSSAAPAVATTQANTLSGSSLSQAPSHMYGNRSNSSMAALIAQSENNQTDQDLGDNSRNLVGRGSSPRGSLSPRSPVSSLQIRYDQPGNSSLENLPPVAASIEQLLERQWSEGQQFLLEQGTPSDILGMLKSLHQLQVENRRLEEQIKNLTAKKERLQLLNAQLSVPFPTITANPSPSHQIHTFSAQTAPTTDSLNSSKSPHIGNSFLPDNSLPVLNQDLTSSGQSTSSSSALSTPPPAGQSPAQQGSGVSGVQQVNGVTVGALASGMQPVTSTIPAVSAVGGIIGALPGNQLAINGIVGALNGVMQTPVTMSQNPTPLTHTTVPPNATHPMPATLTNSASGLGLLSDQQRQILIHQQQFQQLLNSQQLTPEQHQAFLYQLMQHHHQQHHQPELQQLQIPGPTQIPINNLLAGTQAPPLHTATTNPFLTIHGDNASQKVARLSDKTGPVAQEKS

binding [6]: binds
B2: GFP-tagged ELL, full length (protein, UniProt P55199 1-621)
chain: MAALKEDRSYGLSCGRVSDGSKVSVFHVKLTDSALRAFESYRARQDSVSLRPSIRFQGSQGHISIPQPDCPAEARTFSFYLSNIGRDNPQGSFDCIQQYVSSHGEVHLDCLGSIQDKITVCATDDSYQKARQSMAQAEEETRSRSAIVIKAGGRYLGKKVQFRKPAPGATDAVPSRKRATPINLASAIRKSGASAVSGGSGVSQRPFRDRVLHLLALRPYRKAELLLRLQKDGLTQADKDALDGLLQQVANMSAKDGTCTLQDCMYKDVQKDWPGYSEGDQQLLKRVLVRKLCQPQSTGSLLGDPAASSPPGERGRSASPPQKRLQPPDFIDPLANKKPRISHFTQRAQPAVNGKLGVPNGREALLPTPGPPASTDTLSSSTHLPPRLEPPRAHDPLADVSNDLGHSGRDCEHGEAAAPAPTVRLGLPLLTDCAQPSRPHGSPSRSKPKKKSKKHKDKERAAEDKPRAQLPDCAPATHATPGAPADTPGLNGTCSVSSVPTSTSETPDYLLKYAAISSSEQRQSYKNDFNAEYSEYRDLHARIERITRRFTQLDAQLRQLSQGSEEYETTRGQILQEYRKIKKTNTNYSQEKHRCEYLHSKLAHIKRLIAEYDQRQLQAWP

binding [6]: binds
B3: GFP-tagged AF17/MLLT6, full length (protein, UniProt P55198 1-1093)
chain: MKEMVGGCCVCSDERGWAENPLVYCDGHACSVAVHQACYGIVQVPTGPWFCRKCESQERAARVRCELCPHKDGALKRTDNGGWAHVVCALYIPEVQFANVLTMEPIVLQYVPHDRFNKTCYICEEQGRESKAASGACMTCNRHGCRQAFHVTCAQMAGLLCEEEVLEVDNVKYCGYCKYHFSKMKTSRHSSGGGGGGAGGGGGSMGGGGSGFISGRRSRSASPSTQQEKHPTHHERGQKKSRKDKERLKQKHKKRPESPPSILTPPVVPTADKVSSSASSSSHHEASTQETSESSRESKGKKSSSHSLSHKGKKLSSGKGVSSFTSASSSSSSSSSSSGGPFQPAVSSLQSSPDFSAFPKLEQPEEDKYSKPTAPAPSAPPSPSAPEPPKADLFEQKVVFSGFGPIMRFSTTTSSSGRARAPSPGDYKSPHVTGSGASAGTHKRMPALSATPVPADETPETGLKEKKHKASKRSRHGPGRPKGSRNKEGTGGPAAPSLPSAQLAGFTATAASPFSGGSLVSSGLGGLSSRTFGPSGSLPSLSLESPLLGAGIYTSNKDPISHSGGMLRAVCSTPLSSSLLGPPGTSALPRLSRSPFTSTLPSSSASISTTQVFSLAGSTFSLPSTHIFGTPMGAVNPLLSQAESSHTEPDLEDCSFRCRGTSPQESLSSMSPISSLPALFDQTASAPCGGGQLDPAAPGTTNMEQLLEKQGDGEAGVNIVEMLKALHALQKENQRLQEQILSLTAKKERLQILNVQLSVPFPALPAALPAANGPVPGPYGLPPQAGSSDSLSTSKSPPGKSSLGLDNSLSTSSEDPHSGCPSRSSSSLSFHSTPPPLPLLQQSPATLPLALPGAPAPLPPQPQNGLGRAPGAAGLGAMPMAEGLLGGLAGSGGLPLNGLLGGLNGAAAPNPASLSQAGGAPTLQLPGCLNSLTEQQRHLLQQQEQQLQQLQQLLASPQLTPEHQTVVYQMIQQIQQKRELQRLQMAGGSQLPMASLLAGSSTPLLSAGTPGLLPTASAPPLLPAGALVAPSLGNNTSLMAAAAAAAAVAAAGGPPVLTAQTNPFLSLSGAEGSGGGPKGGTADKGASANQEKG

No constants are given. Whether binding was seen depends on the method and setting. In cells and extracts the contact can be indirect. A yes stands for co-enrichment or nearness to the bait. Other partners may have been found. For some assays here: Tags and fused reporters may be left off the sequences shown. Each block holds one molecule with its values, some of them ahead of it.
